In US12377063B2, “Combination therapies for managing cancer” (Emory University, priority 2019, dated 2025):
Entries after “also recorded” stand apart in the source; their conditions may differ. At least one compound was matched to its structure with a doubt left.

Key:
p-PDHS293 = experiment: Western blot of p-PDHS293 after DCA treatment; assay type: cell-based; details: 24 hr, FIG. 5B
follower cells = experiment: Spheroid invasion assay, followers; assay type: cell-based; details: followers treated with DCA; FIGS. 5C and 5D

## O=C(O)C(Cl)Cl [DCA, dichloroacetate]
p-PDHS293
  p-PDHS293 level: decreased p-PDHS293
Follower cells
  invasion of followers: increased chain-like invasion; also recorded: promotes invasion
